Results are given in words; binding and its absence hold for the method and conditions named. In cells and extracts the contact can be indirect.
Target: Myc-Tau^WT (human) (UniProt P10636)
Assay: co-IP; Myc-Trap beads (Chromotek) on mitochondria isolated from HeLaGAL cells over-producing Myc-tagged proteins, gently lysed with 4.5 g GDN/g protein in IP buffer (0.1 M Tris-HCl, 0.15 M NaCl, phospholipids, protease inhibitors); overnight at 4°C; eluted proteins analysed by western blot

Amino acid sequences for entries named in this document (tags omitted). A change or cut given only in a name is not applied to a line headed by its entry. Chains listed by the source or under a name are the forms on record and can include a tag or linker.
Myc-Tau^WT (P10636, form named): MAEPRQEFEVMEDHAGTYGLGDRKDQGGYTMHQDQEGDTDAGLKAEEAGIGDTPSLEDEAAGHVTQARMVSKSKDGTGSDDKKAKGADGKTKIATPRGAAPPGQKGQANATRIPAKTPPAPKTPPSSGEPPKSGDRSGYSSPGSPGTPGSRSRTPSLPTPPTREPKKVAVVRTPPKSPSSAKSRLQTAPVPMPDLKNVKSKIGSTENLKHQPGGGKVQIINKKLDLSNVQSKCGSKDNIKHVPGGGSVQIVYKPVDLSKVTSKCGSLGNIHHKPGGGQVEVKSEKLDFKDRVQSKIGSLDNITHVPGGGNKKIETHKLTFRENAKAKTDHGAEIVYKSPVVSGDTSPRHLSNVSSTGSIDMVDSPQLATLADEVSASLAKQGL

binding: no binding
B1: TOM40 (protein, UniProt O96008 1-361)
chain: MGNVLAASSPPAGPPPPPAPALVGLPPPPPSPPGFTLPPLGGSLGAGTSTSRSSERTPGAATASASGAAEDGACGCLPNPGTFEECHRKCKELFPIQMEGVKLTVNKGLSNHFQVNHTVALSTIGESNYHFGVTYVGTKQLSPTEAFPVLVGDMDNSGSLNAQVIHQLGPGLRSKMAIQTQQSKFVNWQVDGEYRGSDFTAAVTLGNPDVLVGSGILVAHYLQSITPCLALGGELVYHRRPGEEGTVMSLAGKYTLNNWLATVTLGQAGMHATYYHKASDQLQVGVEFEASTRMQDTSVSFGYQLDLPKANLLFKGSVDSNWIVGATLEKKLPPLPLTLALGAFLNHRKNKFQCGFGLTIG

From PMC10357015
